In US20250049830A1, “PHARMACEUTICAL COMPOSITION FOR PREVENTING OR TREATING CANCER, COMPRISING SGLT-2 INHIBITOR AND GOSSYPOL” (HAIM BIO., LTD., priority 2019, published 2025):
At least one structure is not confirmed: it was looked up by name or label, or the drawing left a doubt.

Test system: U87 tumor spheroids
Experiment: Tumor spheroid size/diameter of U87 cell line after drug administration
Assay type: cell-based, human
Settings: 14 days, gossypol 5 μM, phenformin 10 μM
Description: The U87 cell line cells prepared according to the method of Example 1 were seeded into a 96-well plate at a density of 1.0×10^2 cells/well in DMEM media containing 2% Matrigel (Corning, NY, USA), and stabilized in a 5% CO2 incubator at 37° C. for 3 days to form tumor spheroids. After stabilization, the cells were cultured in a 5% CO2 incubator at 37° C. for 14 days. […] Referring to FIGS. 6b, 7b and 8b, the rate of change in diameter of the spheroid in the graph was calculated as a percentage based on the change in the average diameter after administration of each drug compared to the average diameter of tumor spheroid cells seeded in the 96-well plate.

Measured: size of the tumor spheroid cells (cell photographs)

Cc1cc2c(C(C)C)c(O)c(O)c(C=O)c2c(O)c1-c1c(C)cc2c(C(C)C)c(O)c(O)c(C=O)c2c1O [gossypol]
decreased: Comparative Example 1: canagliflozin 50 μM, FIG. 6a | Comparative Example 2: dapagliflozin 75 μM, FIG. 7a | Comparative Example 3: empagliflozin 75 μM, FIG. 8a
